## Results of single-concentration screens

The chains behind the UniProt entries cited, without tags or fusion partners. Residues count along the entry.
UniProt Q4DA54, 1-478: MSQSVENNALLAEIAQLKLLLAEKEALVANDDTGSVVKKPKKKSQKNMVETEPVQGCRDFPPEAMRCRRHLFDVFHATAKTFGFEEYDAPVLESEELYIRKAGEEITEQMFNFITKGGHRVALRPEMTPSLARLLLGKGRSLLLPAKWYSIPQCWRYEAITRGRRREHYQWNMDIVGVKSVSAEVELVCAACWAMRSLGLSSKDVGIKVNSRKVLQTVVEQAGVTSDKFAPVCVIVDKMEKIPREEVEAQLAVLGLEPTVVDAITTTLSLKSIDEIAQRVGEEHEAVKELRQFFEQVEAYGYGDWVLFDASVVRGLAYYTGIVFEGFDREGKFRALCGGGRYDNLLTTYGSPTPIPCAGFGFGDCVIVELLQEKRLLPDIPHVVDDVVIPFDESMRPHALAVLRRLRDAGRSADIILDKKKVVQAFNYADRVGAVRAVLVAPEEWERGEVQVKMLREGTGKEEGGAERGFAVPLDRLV
UniProt P9WNZ1, whole entry: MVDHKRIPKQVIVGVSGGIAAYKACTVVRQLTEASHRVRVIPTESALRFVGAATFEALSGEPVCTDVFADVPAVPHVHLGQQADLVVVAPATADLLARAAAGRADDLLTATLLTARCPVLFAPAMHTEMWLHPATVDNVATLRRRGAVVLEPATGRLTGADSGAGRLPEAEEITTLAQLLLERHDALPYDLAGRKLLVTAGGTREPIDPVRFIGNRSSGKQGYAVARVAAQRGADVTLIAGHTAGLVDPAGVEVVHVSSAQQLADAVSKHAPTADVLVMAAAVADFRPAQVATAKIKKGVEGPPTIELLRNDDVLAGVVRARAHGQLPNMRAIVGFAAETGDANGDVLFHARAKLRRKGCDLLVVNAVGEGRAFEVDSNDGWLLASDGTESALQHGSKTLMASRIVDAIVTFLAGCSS

TcHisRS: 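Histidine-tRNA ligase, Trypanosoma cruzi CL Brener (UniProt Q4DA54). Enzyme assay of histidyl-tRNA synthetase; the read-out is not stated. Concentration: 30 µM. Direction is inferred from retests: higher values go with stronger inhibition. Of about 69,000 compounds tested this way, about 31 (0.045%) reached 50% or more in at least one test.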
CoaBC: 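Coenzyme A biosynthesis protein CoaBC, Mycobacterium tuberculosis (UniProt P9WNZ1). Enzyme assay of CoaBC with a phosphate dye (Biomol Green) read at 650 nm. Concentration: 30 µM. Direction is inferred from only a few compounds that gave an IC50; most scored high, so higher reads as stronger inhibition. Most strong results did not repeat in a second test. Size under these conditions: about 67,000 compounds, about 40 of them at 50% or above in at least one test.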

Results are given as percent effect. The record does not define 0% and 100%; most values in the screen are far below 50% and negative numbers occur (in some assays of this library far below -100). The compounds are a random part of those screened. Two or more numbers in one place are separate tests of the same structure; such repeats can differ widely. A dash means the value is not listed here; it may have been measured.

structure,TcHisRS,CoaBC
COCCNC(=O)N1CCCC(COc2ccccc2)C1 (centres unmarked),3.627%,2.581%
Cc1ccccc1CNC(=O)N1C[C@H]2C[C@H](C(=O)N3CCCC3)[C@@H](C1)O2,6.897%,1.426%
CCC(C)NC(=O)CS(=O)(=O)Cc1ccccc1Cl (centres unmarked),4.902%,0.638%
CS(=O)(=O)N1C[C@@H]2COC[C@@H](CC(=O)N3CCCO3)[C@@H]2C1,-1.149%,2.24%
Cc1nnc2ccc(N3CCN(CCc4ccccn4)CC3)nn12,1.143%,4.301%
Cc1ccc(C(=O)N2CCCC(c3[nH]ncc3S(C)(=O)=O)C2)s1 (centres unmarked),-1.099%,-3.641%
Cc1nnc(C(C)NCC2(c3ccc(Cl)cc3)CCCC2)o1 (centres unmarked),0.8333%,-3.198%
CN(Cc1ccco1)C[C@H]1OC[C@@H]2CCN(Cc3nccs3)C[C@@H]21,3.784%,3.68%
CC(C)CCN1C[C@@H]2OCCN(c3ncc(F)cn3)[C@@H]2C1,0.9346%,-2.469%
CCOc1ccc(Cl)c(C(=O)N2CCN(C(=O)c3ccoc3C)CC2)n1,2.29%,-0.4819%
O=S(=O)(N1CCCCCC1)N1CCN(Cc2ccc(F)cc2Br)CC1,13.29%,4.467%
CC1CN(CC(=O)NCCc2ccncc2)Cc2ccccc2O1 (centres unmarked),-2.41%,3.218%
CC1N(C)C(=O)COC12CCN(C(=O)Cc1ccsc1)CC2 (centres unmarked),6.329%,-
Cc1cnn(C2CN(Cc3noc(C)n3)C2)c1,0%,5.165%
Cc1noc(-c2ccc(N3CCCC(C(=O)N4CCSCC4)C3)nc2)n1 (centres unmarked),9.091%,-6.61%
Cc1nn(C)c2nc(NCCCN3CCCC(CO)C3)sc12 (centres unmarked),-14.85%,2.3%
O=S(=O)(CC1CCOCC1)NCc1ccnc(O)c1,-0.8403%,1.21%
Cc1nc(C)n(CC2CCCN2Cc2nc(C3CC3)no2)n1 (centres unmarked),-1.141%,-4.255%
Cn1nnc2c1CCN(Cc1ccccc1)C2COCC1CC1 (centres unmarked),13.66%,4.404%
CNC(=O)CS(=O)(=O)C1CCN(S(=O)(=O)c2cccc(Cl)c2C)CC1,5.102%,-1.873%
Cc1cccc(N2CCN(C(=O)CNCCn3cccn3)CC2)c1,7.937%,6.163%
COCCN1CCN(Cc2nccs2)[C@H]2CS(=O)(=O)C[C@H]21,4.082%,3.571%
O=C(CCN1CCCC1)N1CC[C@@H](c2ccc3ccccc3c2)[C@H](O)C1,36.07%,-22%
O=C(Cc1cccs1)NCc1ccnc(OC2CCOCC2)c1,10.34%,-0.9823%
CN1CCCn2c(nc(CNS(=O)(=O)C3CC3)cc2=O)C1,5.747%,5.943%
Cc1noc(CNc2cccc(C(=O)N3CCCC(O)C3)c2)n1 (centres unmarked),-1.093%,3.667%
CNC(=O)c1cc2c(nc1NCC1CC1)CCNCC2,5.941%,-10.28%
O=C(NCc1ccco1)[C@@H]1CCO[C@@H]2CCN(c3ncccn3)C[C@H]21,10.92%,6.288%
Cc1cc(C)cc(NCCC(=O)NC2CCCCC2)c1,7.772%,11.72%
O=C(Cc1cccc(F)c1)NCCNc1ncccn1,0%,3.781%
O=C(c1ccco1)N1C[C@H]2CCCN(Cc3cccs3)[C@H]2C1,7.104%,-3.218%
CCc1nc(CN(C(C)=O)C2CCN(CCc3cccs3)C2)no1 (centres unmarked),8.671%,2.937%
CN(C)CCN1CCC2(CCCN(C(=O)C3CCC3)C2)CC1,8.046%,-24.39%
O=C(Cc1cccs1)NCC1Cn2nnc(-c3ccoc3)c2CO1 (centres unmarked),7.595%,-
Cc1oc(C)c(C(=O)N2CCN(Cc3cscn3)CC2)c1C,4.373%,4.7%
CC(C)c1ncc(Cl)c(C(=O)N2CCN(C3CCCC3)CC2)n1,1.293%,2.408%
CN1CCN(Cc2n[nH]c(=O)n2CC2CCCCC2)CC1,0%,5.6%
Cc1cc(NCC2(O)CCOCC2)c2ccccc2n1,5.464%,-2.689%
CC(C)Cc1cc(C(=O)NCC2CCCN(Cc3ccco3)C2)on1 (centres unmarked),2.597%,-3.171%
CC(C)N(C)Cc1nnc2n1CCCN(S(=O)(=O)C1CC1)C2,7.527%,1.903%
CCCOC1CCCN(C(=O)c2cc(CN(CC)CC)c(CC)o2)C1 (centres unmarked),2.488%,11.36%
O=C(c1ccc2nccn2c1)N1CCCC1c1noc(C2CC2)n1 (centres unmarked),5.319%,2.82%
O=C(C[C@@H]1COC[C@H]2CN(Cc3ccncc3)C[C@@H]12)N1CCOCC1,-1.639%,3.365%
O=C1CN(c2ccc(CNC(=O)NCc3ccoc3)cc2)CCN1,6.897%,1.161%
COCC(=O)N1CCCCC1c1ccncn1 (centres unmarked),1.498%,-1.115%
Cc1nc[nH]c1CN1CCN(C(=O)c2cccs2)[C@H]2CS(=O)(=O)C[C@H]21,4.132%,3.07%
Cn1ccnc1C(NCc1csc(Br)c1)c1ccccc1 (centres unmarked),-1.916%,0.6745%
COc1ccc([C@@H]2CN(c3cc(OC)ncn3)C[C@H]2N(C)C)cc1,3.947%,-
Cc1cn2c(n1)CCC(NS(=O)(=O)c1ccc(C)s1)C2 (centres unmarked),4.167%,0.8526%
CC(=O)NCC(=O)N1CCn2cc(CN3CCCCC3)nc2C1,3.483%,-17.42%
CC(C)(C)c1csc(CCNC(=O)C(c2ccccc2)n2cnnn2)n1 (centres unmarked),2.062%,-8.255%
CCn1cc2c(n1)C(COCC1CC1)CN(C(=O)c1cnoc1C)C2 (centres unmarked),3.797%,-
CN(C)C(=O)Cn1c2c(ccc1=O)CC(NCc1cccnc1)CC2 (centres unmarked),3.797%,-
CC(C)c1noc(CCC(=O)NC(C)c2ccccn2)n1 (centres unmarked),7.692%,1.901%
CCc1cnc(N2CCN(Cc3ccncc3)CC2)s1,0.6369%,-
Cc1ccc(C(=O)N2CCOC(c3nc(-c4ncccn4)no3)C2)cc1 (centres unmarked),8.511%,3.186%
Cc1cc(C)nc(N2CCC(C(=O)Nc3ncc[nH]3)CC2)n1,-1.554%,8.763% & 36.46%
Cc1ccc(S(=O)(=O)NCc2[nH]ncc2Br)cc1F,11.11%,5.579%
CCn1cnnc1CNC(=O)N1CCN(c2ccccc2O)CC1,0.5747%,2.968%
Cc1nc(CN2CCCN(CC(=O)N(C)C(C)(C)C#N)CC2)no1,0.9852%,6.731%
Cc1nc(N2CCN(C(=O)c3ccsc3)CC2)c2cnn(C)c2n1,2.256%,3.203%
COc1cc(N2CCCC(c3nccn3Cc3cccnc3)C2)ncn1 (centres unmarked),3.279%,9.535%
CCOCC1CCN(C(=O)Nc2ccc(-c3csnn3)cc2)C1 (centres unmarked),6.329%,1.683%
CC(=O)Nc1ccc(S(=O)(=O)N2CCOC(Cn3ccnc3)C2)cc1 (centres unmarked),9.579%,-12.86%
O=C(NCc1ccc(CN2CCCC2)cc1)NC1(CO)CCCC1,-1.149%,-1.6%
O=C(c1ccc(S(=O)(=O)NCc2ccon2)cc1)N1CCNCC1,3.004%,17.11%
CN1CCN(Cc2cn3c(n2)CN(C(=O)N2CCOCC2)CC3)CC1,2.51%,10.91%
O=C(Cc1cnc(-n2cccc2)s1)NCCCO,6.211%,-2.658%
Cc1ccc(C(=O)CC(SC2CCCCC2)C(=O)O)cc1 (centres unmarked),2.083%,0.6904%
CN(Cc1nccn1C)S(=O)(=O)Cc1cccc(C#N)c1,0%,-
CC(C)c1nccc([C@@H]2C[C@@H]3CCN(Cc4ccco4)C[C@H]3O2)n1,0.8264%,-2.941%
CC(C)C[C@H](NC(=O)CNC(=O)OC(C)(C)C)C(=O)OC(C)(C)C,1.316%,-
Clc1cccc(C[C@@H]2NCCC[C@@H]2Nc2cccc(Cl)c2)c1,19.23%,-20.67%

Data taken from ChEMBL document CHEMBL3988442, “University of Dundee, Small-Polar-MMV Screening Library” (2021).